{
  "sequences": {"note": "Chains of the proteins cited; added tags and fusions are not shown.", "UniProt Q9P2K8, whole entry": "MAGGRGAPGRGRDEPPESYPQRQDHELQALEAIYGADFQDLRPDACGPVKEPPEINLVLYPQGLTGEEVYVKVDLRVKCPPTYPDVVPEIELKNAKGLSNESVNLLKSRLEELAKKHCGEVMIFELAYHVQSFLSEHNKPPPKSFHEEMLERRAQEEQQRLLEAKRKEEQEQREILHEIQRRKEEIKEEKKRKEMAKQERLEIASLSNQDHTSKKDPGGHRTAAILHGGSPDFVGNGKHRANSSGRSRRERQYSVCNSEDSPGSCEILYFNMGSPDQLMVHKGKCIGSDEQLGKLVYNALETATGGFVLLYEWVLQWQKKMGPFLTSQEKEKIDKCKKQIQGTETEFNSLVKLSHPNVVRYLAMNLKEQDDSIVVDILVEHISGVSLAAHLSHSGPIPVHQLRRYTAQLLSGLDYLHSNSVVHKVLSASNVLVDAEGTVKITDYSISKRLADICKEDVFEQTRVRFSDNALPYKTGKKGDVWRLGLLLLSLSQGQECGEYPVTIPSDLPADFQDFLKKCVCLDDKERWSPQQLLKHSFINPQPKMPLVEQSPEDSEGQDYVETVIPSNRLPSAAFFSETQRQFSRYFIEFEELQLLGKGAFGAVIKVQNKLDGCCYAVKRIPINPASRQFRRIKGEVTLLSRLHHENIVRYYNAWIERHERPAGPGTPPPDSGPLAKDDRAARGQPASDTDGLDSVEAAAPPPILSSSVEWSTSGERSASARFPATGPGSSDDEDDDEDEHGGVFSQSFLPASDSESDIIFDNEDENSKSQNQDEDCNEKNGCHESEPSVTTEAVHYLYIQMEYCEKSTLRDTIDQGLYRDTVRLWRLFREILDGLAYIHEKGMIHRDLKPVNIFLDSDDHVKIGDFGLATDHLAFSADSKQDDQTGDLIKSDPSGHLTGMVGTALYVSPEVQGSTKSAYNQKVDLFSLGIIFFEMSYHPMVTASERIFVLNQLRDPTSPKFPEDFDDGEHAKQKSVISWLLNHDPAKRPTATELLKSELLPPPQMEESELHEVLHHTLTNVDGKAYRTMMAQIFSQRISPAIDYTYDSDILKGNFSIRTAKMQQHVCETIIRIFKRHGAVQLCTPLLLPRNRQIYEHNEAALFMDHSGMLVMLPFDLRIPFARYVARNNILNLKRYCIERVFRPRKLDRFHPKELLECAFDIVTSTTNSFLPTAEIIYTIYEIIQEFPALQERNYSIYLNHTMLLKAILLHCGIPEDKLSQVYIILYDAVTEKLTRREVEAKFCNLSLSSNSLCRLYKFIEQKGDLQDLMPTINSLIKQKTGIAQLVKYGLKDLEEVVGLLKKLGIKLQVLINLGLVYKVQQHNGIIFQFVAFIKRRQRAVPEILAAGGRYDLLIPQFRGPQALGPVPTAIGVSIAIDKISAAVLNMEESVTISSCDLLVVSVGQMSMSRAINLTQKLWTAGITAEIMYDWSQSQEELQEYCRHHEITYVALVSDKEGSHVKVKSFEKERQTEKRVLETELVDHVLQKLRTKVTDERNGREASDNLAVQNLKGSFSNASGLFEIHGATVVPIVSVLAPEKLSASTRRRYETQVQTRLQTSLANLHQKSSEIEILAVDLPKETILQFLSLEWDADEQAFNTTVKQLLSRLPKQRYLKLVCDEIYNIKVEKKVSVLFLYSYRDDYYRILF"},
  "source": "patent US10793563B2",
  "about": "“GCN2 inhibitors and uses thereof” (Merck Patent GmbH, priority 2018, dated 2020)",
  "target": "GCN2 kinase (Homo sapiens (Human), UniProt Q9P2K8)",
  "assay": "GCN2 Enzyme Inhibition Assay (Transcreener ADP2 fluorescence polarization)",
  "format": "biochemical",
  "details": "read-out: GCN2 (IC50); 280 μM ATP, 200 μM (RS)7 peptide, 4 nM GCN2, 25° C.",
  "note": "The match of structure and compound is tentative.",
  "data": [
    {"molecule": "C[C@@H]1C[C@H](N=S(C)(C)=O)CN(c2ccnc(-c3cnc4cc(F)c(C5CC5)cn34)n2)C1", "values": [
      {"measurement": "IC50", "result": "10 to 100", "unit": "nM"}
    ]}
  ]
}
